Test results as given in publication doi:10.1101/2025.05.16.654433.
Residue numbers refer to the chain shown, from its start. No constants are given. Whether binding was seen depends on the method and setting. In cells and extracts the contact can be indirect. Some binding calls cover weakened binding; strength is not graded here. Tags and fused reporters may be left off the sequences shown.

Chains of the proteins cited; added tags and fusions are not shown.
UniProt P48727: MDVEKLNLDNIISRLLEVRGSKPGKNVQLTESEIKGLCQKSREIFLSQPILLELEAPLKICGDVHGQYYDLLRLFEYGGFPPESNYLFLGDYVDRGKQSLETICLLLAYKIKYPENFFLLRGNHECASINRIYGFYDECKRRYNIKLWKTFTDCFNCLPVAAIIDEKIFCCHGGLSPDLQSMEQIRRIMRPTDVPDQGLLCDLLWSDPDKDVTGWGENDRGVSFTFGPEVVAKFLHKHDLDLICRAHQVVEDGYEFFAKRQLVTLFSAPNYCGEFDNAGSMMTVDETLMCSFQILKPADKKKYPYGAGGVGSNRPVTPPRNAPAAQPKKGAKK

Legend:
[1] = molecular target: T1, APE-1 N583K ::GFP::3xflag (C. elegans) (UniProt Q9XVN3); test: single-molecule pull-down with TIRF microscopy and photobleaching step counting; APE-1::GFP::3xflag captured from whole-worm lysate on coverslips functionalized with biotinylated anti-flag antibody; colocalized green and far-red (JF646 HaloTag::GSP-2) spots; photobleaching steps classified by CNNs; 50 mM HEPES pH 7.6, 150 mM KCl, 10% glycerol, room temperature
T1 sequence: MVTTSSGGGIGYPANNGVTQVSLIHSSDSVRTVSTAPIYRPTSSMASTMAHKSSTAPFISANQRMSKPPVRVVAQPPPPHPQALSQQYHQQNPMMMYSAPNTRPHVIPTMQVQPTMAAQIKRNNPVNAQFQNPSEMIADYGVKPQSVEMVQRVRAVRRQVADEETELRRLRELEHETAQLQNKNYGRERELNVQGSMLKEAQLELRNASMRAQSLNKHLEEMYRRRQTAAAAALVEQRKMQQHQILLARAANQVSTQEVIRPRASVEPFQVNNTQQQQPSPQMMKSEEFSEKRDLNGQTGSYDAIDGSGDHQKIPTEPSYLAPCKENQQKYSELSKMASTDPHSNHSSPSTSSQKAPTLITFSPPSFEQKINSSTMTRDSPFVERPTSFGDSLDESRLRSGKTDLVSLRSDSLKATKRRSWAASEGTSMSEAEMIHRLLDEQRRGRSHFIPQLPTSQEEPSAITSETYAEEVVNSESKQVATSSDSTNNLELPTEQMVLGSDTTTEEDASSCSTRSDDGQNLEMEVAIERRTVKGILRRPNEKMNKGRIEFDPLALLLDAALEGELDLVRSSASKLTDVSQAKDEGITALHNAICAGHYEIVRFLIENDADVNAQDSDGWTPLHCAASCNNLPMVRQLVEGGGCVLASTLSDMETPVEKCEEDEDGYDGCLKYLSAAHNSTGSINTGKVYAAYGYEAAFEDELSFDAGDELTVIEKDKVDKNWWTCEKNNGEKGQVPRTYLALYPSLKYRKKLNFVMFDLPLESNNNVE

[2] = molecular target: T2, APE-1 H591Y ::GFP::3xflag (C. elegans) (UniProt Q9XVN3); test: as above
T2 sequence: T1 sequence with K583N, H591Y

## HaloTag::GSP-2 (endogenously HaloTagged GSP-2 labeled with JF646) (from UniProt P48727 1-333) (enzyme)
[1]
  binding: binds
[2]
  binding: binds
